Data taken from US20020164702A1.
No constants are given. Whether binding was seen depends on the method and setting. Some entries that bind do so weakly or less than the wild type. Where a sequence is shown, tags or fusion partners need not be part of it.

The chains behind the UniProt entries cited, without tags or fusion partners. Where a name states a change or a piece, a line headed by the entry shows the natural chain unless it says otherwise. A line that says so, or that is headed by a name, gives the form on record, which may keep a tag or linker.
c-agrin4,0 (P25304, form named): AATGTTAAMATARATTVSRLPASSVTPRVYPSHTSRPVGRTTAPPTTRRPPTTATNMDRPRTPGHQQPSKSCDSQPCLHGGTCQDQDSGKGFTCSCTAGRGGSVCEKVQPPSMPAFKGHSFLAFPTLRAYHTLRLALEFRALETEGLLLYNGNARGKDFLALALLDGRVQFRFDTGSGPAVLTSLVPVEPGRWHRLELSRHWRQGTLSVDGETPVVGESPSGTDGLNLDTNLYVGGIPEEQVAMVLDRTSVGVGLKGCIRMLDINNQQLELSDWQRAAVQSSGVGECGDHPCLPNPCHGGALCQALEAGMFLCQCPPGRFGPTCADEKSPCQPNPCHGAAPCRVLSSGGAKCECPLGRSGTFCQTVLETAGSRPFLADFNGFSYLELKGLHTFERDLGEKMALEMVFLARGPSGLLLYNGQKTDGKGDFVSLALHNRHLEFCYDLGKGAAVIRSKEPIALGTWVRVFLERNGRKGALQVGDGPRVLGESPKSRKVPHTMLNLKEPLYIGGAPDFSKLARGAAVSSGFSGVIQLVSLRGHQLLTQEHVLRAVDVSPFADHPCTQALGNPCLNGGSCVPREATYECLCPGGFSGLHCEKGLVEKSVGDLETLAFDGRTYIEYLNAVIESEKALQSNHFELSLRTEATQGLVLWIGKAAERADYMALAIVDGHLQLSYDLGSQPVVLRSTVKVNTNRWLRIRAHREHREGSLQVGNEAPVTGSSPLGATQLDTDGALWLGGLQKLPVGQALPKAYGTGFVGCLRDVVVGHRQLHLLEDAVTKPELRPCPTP

Target: c-agrin4,0 (UniProt P25304)
Assay: MuSK-Fc bound to the surface of differentiated C2C12 myotubes with agrin conditioned medium (10 nM), detected with radio-iodinated anti-human IgG; complex forms only on myotubes (myotube-specific accessory component), not on fibroblasts or myoblasts

binding: binds
B1: MuSK-Fc (ectodomain of rat MuSK fused to the Fc portion of human immunoglobulin G1) (Fc fusion, not shown: small tags and cut ends)
chain: GTEKLPKAPVITTPLETVDALVEEVATFMCAVESYPQPEISWTRNKILIKLFDTRYSIRENGQLLTILSVEDSDDGIYCCTANNGVGGAVESCGALQVKMKPKITRPPINVKIIEGLKAVLPCTTMGNPKPSVSWIKGDSALRENSRIAVLESGSLRIHNVQKEDAGQYRCVAKNSLGTAYSKLVKLEVEVFARILRAPESHNVTFGSFVTLRCTAIGMPVPTISWIENGNAVSSGSIQENVKDRVIDSRLQLFITKPGLYTCIATNKHGEKFSTAKAAATVSIAEWSKSQKESKGYCAQYRGEVCDAVLVKDSLVFFNTSYPDPEEAQELLIHTAWNELKAVSPLCRPAAEALLCNHLFQECSPGVLPTPMPICREYCLAVKELFCAKEWLAMEGKTHRGLYRSGMHFLPVPECSKLPSMHQDPTACTRLPYLDYKKENITTFPSITSSKPSVDIPNLPASTSSFAVSPAYSGPG
